Results published in the supplement of paper PMC10849652.
The other results are listed elsewhere or left out.

Amino acid sequences for entries named in this document (tags omitted). A change or cut given only in a name is not applied to a line headed by its entry.
UniProt Q9H5J4: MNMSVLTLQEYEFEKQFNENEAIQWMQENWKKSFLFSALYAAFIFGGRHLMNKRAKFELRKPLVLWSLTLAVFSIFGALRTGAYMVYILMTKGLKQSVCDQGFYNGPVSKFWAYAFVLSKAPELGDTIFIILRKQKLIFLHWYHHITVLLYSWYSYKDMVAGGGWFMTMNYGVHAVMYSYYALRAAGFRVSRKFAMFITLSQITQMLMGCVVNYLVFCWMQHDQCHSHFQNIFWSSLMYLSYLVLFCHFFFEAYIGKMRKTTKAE
UniProt O43402: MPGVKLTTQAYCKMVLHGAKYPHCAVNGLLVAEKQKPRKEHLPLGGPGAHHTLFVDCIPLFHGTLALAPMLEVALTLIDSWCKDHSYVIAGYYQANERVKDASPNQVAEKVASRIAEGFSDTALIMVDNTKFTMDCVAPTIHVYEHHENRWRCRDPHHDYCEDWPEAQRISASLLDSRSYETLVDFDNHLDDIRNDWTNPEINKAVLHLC
UniProt O15371, whole entry, looked up: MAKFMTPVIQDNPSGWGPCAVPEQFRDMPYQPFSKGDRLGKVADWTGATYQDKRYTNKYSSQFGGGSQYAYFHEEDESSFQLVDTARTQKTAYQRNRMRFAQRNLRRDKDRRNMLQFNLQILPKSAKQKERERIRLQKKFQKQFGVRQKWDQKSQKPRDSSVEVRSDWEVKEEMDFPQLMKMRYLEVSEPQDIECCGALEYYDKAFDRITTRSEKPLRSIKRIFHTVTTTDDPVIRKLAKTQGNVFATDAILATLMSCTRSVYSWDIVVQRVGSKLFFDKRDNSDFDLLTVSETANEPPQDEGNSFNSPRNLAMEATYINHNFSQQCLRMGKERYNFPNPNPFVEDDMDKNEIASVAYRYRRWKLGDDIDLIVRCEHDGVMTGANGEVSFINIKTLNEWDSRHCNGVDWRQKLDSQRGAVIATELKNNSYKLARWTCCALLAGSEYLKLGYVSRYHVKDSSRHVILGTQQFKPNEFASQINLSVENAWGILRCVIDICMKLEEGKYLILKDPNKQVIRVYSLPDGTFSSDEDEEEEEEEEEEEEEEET
UniProt Q92979: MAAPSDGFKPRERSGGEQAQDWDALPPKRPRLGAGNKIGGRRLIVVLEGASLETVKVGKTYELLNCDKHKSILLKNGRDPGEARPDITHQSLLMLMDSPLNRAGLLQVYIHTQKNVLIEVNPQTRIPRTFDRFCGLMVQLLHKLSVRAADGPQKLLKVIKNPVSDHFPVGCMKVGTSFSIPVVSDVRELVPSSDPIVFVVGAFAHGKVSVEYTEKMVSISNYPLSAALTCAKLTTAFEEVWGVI
UniProt O14638, whole entry, looked up: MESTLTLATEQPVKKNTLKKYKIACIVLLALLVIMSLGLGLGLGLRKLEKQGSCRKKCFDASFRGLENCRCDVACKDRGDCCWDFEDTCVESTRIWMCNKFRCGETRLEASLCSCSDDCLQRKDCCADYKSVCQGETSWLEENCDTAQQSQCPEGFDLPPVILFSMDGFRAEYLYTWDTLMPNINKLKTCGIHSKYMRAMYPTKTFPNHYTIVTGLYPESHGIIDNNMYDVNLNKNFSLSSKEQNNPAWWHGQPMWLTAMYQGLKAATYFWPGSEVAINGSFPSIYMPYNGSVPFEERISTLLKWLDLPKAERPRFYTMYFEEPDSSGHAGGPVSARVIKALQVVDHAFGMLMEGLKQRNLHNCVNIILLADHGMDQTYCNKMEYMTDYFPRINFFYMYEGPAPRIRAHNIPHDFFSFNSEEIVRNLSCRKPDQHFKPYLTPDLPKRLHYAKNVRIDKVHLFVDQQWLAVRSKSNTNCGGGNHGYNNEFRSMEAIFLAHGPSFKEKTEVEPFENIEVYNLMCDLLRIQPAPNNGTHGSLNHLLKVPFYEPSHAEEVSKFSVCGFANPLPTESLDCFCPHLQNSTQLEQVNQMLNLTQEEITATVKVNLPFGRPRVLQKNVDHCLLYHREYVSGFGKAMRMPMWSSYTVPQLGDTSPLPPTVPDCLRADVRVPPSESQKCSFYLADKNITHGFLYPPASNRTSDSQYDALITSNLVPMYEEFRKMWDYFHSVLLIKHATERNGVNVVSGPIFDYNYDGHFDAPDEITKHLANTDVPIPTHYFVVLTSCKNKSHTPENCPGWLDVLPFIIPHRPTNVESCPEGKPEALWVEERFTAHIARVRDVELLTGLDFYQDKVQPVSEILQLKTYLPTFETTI
UniProt P41091, whole entry, looked up: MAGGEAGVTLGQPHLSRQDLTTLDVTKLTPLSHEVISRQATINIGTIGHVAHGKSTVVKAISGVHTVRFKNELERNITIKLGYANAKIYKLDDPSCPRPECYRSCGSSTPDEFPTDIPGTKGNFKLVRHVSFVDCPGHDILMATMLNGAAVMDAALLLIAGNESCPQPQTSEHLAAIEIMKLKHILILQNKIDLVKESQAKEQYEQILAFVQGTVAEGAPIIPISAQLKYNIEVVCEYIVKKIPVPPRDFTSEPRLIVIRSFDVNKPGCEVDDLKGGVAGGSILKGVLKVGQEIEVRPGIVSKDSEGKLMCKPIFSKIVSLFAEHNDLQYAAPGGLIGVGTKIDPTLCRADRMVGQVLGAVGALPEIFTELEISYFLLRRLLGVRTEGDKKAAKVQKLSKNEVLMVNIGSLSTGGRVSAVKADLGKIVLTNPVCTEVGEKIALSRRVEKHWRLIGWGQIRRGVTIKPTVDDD
UniProt Q96JJ3: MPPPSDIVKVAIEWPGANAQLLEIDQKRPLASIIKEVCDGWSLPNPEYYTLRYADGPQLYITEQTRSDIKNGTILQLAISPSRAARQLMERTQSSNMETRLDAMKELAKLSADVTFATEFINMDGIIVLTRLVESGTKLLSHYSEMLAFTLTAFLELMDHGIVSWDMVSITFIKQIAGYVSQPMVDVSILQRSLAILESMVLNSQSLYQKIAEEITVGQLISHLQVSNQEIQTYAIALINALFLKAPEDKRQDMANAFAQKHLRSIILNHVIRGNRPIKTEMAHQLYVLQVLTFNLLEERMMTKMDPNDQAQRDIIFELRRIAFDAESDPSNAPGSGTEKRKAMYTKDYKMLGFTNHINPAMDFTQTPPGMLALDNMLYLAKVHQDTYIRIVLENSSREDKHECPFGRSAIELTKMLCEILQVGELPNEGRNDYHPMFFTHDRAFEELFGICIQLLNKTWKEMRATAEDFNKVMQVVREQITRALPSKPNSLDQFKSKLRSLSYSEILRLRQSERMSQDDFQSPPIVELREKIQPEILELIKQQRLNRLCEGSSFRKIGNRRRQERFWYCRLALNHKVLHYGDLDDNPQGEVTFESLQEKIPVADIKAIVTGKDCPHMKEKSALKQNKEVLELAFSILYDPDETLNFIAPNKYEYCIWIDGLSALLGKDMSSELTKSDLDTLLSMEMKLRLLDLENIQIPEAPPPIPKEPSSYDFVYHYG
UniProt P11171, whole entry, looked up: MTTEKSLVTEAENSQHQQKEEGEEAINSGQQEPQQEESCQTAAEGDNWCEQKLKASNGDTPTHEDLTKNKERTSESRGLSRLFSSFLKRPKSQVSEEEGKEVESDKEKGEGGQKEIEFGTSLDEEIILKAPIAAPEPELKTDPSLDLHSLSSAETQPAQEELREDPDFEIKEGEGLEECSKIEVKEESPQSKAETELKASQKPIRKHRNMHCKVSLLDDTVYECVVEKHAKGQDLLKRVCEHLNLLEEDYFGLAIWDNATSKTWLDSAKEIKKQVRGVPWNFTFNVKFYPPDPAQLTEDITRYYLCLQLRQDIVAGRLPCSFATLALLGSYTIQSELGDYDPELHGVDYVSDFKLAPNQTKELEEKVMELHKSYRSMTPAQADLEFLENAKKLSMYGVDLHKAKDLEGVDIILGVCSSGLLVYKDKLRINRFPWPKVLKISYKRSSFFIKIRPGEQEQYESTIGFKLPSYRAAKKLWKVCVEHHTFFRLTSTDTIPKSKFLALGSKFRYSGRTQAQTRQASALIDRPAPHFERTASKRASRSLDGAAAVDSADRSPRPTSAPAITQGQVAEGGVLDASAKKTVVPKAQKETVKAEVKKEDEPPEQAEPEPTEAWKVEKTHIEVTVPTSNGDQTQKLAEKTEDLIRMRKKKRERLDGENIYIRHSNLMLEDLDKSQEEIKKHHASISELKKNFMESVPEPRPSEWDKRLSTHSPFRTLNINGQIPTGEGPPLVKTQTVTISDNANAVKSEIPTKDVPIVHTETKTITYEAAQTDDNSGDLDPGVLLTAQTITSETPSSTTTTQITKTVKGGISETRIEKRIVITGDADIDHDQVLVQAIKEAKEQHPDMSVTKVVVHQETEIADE
UniProt Q8IZ81: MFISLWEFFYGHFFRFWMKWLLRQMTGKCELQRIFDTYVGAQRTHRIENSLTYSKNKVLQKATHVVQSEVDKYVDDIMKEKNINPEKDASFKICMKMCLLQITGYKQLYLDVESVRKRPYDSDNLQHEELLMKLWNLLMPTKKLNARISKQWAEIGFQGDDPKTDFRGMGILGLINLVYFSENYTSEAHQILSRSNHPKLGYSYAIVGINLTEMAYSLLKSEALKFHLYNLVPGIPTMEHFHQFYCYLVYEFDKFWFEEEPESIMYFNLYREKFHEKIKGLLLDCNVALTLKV
UniProt P26378: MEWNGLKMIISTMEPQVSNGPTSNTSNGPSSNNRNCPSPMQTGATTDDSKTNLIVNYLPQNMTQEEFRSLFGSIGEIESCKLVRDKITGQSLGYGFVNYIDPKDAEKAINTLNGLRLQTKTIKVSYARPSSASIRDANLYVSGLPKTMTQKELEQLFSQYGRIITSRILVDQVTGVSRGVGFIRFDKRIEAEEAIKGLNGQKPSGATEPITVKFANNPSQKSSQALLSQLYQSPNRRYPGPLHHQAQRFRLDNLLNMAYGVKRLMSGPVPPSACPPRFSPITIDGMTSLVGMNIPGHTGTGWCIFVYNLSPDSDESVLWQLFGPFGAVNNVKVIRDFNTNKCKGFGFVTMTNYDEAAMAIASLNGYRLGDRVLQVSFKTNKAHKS
UniProt Q8NFI3: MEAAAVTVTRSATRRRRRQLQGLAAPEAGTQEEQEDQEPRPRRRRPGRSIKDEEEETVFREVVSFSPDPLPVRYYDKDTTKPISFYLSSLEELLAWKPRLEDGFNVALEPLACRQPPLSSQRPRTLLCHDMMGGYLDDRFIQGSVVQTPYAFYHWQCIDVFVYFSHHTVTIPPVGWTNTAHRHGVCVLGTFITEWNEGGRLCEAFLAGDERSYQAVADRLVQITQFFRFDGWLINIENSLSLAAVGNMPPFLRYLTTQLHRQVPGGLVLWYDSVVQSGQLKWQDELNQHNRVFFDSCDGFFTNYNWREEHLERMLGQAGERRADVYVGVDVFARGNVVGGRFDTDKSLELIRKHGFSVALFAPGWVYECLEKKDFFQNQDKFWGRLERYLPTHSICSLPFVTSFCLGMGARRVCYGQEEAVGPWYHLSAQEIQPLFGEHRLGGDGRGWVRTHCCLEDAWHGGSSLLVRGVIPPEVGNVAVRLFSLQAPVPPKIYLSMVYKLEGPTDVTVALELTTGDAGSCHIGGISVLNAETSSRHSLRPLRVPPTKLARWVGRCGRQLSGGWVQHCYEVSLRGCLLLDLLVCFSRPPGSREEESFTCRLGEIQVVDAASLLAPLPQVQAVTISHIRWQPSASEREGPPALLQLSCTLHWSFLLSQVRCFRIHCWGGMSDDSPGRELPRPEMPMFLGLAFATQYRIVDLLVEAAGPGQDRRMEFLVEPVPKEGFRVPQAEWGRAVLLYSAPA
UniProt Q7L775: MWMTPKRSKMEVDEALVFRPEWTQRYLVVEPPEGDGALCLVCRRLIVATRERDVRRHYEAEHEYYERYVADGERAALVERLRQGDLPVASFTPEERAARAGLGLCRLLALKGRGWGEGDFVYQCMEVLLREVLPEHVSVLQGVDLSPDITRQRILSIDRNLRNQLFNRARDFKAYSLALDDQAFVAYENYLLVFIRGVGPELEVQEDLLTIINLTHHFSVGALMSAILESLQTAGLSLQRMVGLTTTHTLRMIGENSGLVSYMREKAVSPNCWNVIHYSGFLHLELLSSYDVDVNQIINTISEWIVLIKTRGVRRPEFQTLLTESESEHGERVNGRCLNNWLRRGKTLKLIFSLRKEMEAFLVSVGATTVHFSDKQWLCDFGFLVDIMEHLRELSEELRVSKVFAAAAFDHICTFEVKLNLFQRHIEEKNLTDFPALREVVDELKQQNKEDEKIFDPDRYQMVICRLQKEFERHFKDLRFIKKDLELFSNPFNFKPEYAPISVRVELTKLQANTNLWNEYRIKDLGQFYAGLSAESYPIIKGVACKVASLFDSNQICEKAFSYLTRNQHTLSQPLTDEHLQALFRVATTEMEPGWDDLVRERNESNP
UniProt O60573: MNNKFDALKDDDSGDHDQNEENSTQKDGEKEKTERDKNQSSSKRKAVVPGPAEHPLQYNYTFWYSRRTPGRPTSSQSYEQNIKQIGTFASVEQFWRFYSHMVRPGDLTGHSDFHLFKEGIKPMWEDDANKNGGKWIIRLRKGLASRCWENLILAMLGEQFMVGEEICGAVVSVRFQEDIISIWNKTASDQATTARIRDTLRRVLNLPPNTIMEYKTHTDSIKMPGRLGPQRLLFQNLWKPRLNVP
UniProt Q13542: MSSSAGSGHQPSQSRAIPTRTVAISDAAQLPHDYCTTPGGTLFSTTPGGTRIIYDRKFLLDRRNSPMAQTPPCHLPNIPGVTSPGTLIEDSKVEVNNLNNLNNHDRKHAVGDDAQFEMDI

Compound: NC(=O)Nc1cc(-c2cccc(F)c2)sc1C(=O)N[C@H]1CCCNC1
Experiment: log2 fold change, soluble protein after heating vs DMSO (PISA); higher = thermal stabilisation; K562 lysate, 10 uM; active = over 0.2 and 3.5 SD of the protein, either way, in both replicates (recomputed)
Method in brief: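 To prepare the extract, K562 pellets were dounce-homogenised in PBS pH 7.4 with 1 mM MgCl2, giving crude material at 1 mg/mL protein. This was treated with 10 μM compound for 30 min, then heated in aliquots for 3 min over 48°C-58°C before pooling and addition of NP-40 to 0.5% at 4°C. Centrifugation at 21,000xg for 90 min left soluble protein in the supernatant, which TMTpro 16plex LC-MS/MS quantified with equalised channel sums. Results are log-two fold changes in thermal stability compared with solvent controls, from duplicates.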

log2 fold change, inactive:
ELOVL6 (UniProt Q9H5J4) 0.19
EMC8 (UniProt O43402) -0.024
ERCC3 (UniProt P19447) 0.055
EIF3D (UniProt O15371) 0.034
ERAL1 (UniProt O75616) 0.083
EIF4A2 isoform 2 (UniProt Q14240) -0.013
ERC1 (UniProt X6RLX0) -0.008
EMG1 (UniProt Q92979) 0.019
ENPP3 (UniProt O14638) 0.006
EIF2S3 (UniProt P41091) -0.021
EIF2B2 (UniProt P49770) -0.013
ELMO2 (UniProt Q96JJ3) 0.145
EPB41 (UniProt P11171) 0.003
EIF2AK4 (UniProt Q9P2K8) 0.05
EP400P1 isoform 6 (UniProt Q6ZTU2) -0.03
ELMOD2 (UniProt Q8IZ81) -0.013
ELAVL4 (UniProt P26378) 0.07
ENGASE (UniProt Q8NFI3) -0.04
EPM2AIP1 (UniProt Q7L775) 0.001
ELF1 (UniProt P32519) 0.004
EIF4E2 (UniProt O60573) -0.045
EIF5A isoform 2 (UniProt P63241) -0.028
EIF4EBP2 (UniProt Q13542) -0.068

For reference, some entries already given.
log2 fold change, inactive:
EIF3D (UniProt O15371) 0.034
ERAL1 (UniProt O75616) 0.083
